The results in this text go back to PubChem BioAssay AID248 (DTP/NCI, 2004).

The list is a part of this screen's results and no random one: it gathers tests that were run many times, whatever their T/C, doses with no T/C, and many T/C values between a quarter and a half above the control. Other doses and runs of a compound stand elsewhere. T/C: endpoint of the treated group in % of that of the vehicle group. Some doses have a count of surviving animals in place of a T/C: the source holds a T/C of zero for them, seemingly a mark for toxic or unscored doses. Some doses without a T/C left all or most animals alive at the check, yet need not have been tolerated: the source hardly ever lists a survival T/C far under the control, and the zero likely stands for such cases as well. Survivors were counted at the toxicity check, usually on the fifth day, unless a day is given; later deaths do not show. Schedule codes are those of the source, taken here to give the interval after Q, in days (D) or hours (H), and the number of doses after X. Some schedules carry Z or #; the key to these is not given. Some entries hold several experiments; their values stand side by side, smallest first. For survival time, this PubChem deposit counts one and a half times the control or more as active, and values a quarter to a half above the control carry no call in these data; other NCI protocols may use other cut-offs.

This assay relates to L1210 leukemia ip in BDF1 mice, survival T/C. Nature of the assay: NCI In Vivo Anticancer Drug Screen. Data for tumor model L1210 Leukemia (intraperitoneal) in B6D2F1 (BDF1) mice. To be noted: T/C endpoint: mean survival time, higher T/C = longer survival.
The mark [1] stands for this setting: dose: 200.0 mg/kg/injection, schedule: Q01DX009 (ip), vehicle: saline with Tween-80.
Where [2] appears, read: dose: 100.0 mg/kg/injection, schedule: Q01DX009 (ip), vehicle: Klucel (hydroxypropylcellulose) (HPC).
The mark [3] stands for this setting: dose: 100.0 mg/kg/injection, schedule: Q04DX002 (ip), vehicle: Klucel (hydroxypropylcellulose) (HPC).
[4] abbreviates: dose: 200.0 mg/kg/injection, schedule: Q01DX009 (ip), vehicle: Klucel (hydroxypropylcellulose) (HPC).
[5] abbreviates: dose: 400.0 mg/kg/injection, schedule: Q01DX009 (ip), vehicle: Klucel (hydroxypropylcellulose) (HPC).
The mark [6] stands for this setting: dose: 200.0 mg/kg/injection, schedule: Q04DX002 (ip), vehicle: Klucel (hydroxypropylcellulose) (HPC).
Setting [7] is: dose: 200.0 mg/kg/injection, schedule: Q04DX003 (ip), vehicle: Klucel (hydroxypropylcellulose) (HPC).
[8] abbreviates: dose: 400.0 mg/kg/injection, schedule: Q04DX002 (ip), vehicle: Klucel (hydroxypropylcellulose) (HPC).
The mark [9] stands for this setting: dose: 400.0 mg/kg/injection, schedule: Q04DX003 (ip), vehicle: Klucel (hydroxypropylcellulose) (HPC).
The mark [10] stands for this setting: dose: 400.0 mg/kg/injection, schedule: Q04DX002 (ip), vehicle: saline.
[11] abbreviates: dose: 100.0 mg/kg/injection, schedule: Q04DX003 (ip), vehicle: Klucel (hydroxypropylcellulose) (HPC).
Where [12] appears, read: dose: 200.0 mg/kg/injection, schedule: Q04DX003 (ip), vehicle: saline.
Where [13] appears, read: dose: 400.0 mg/kg/injection, schedule: Q04DX003 (ip), vehicle: saline.
[14] abbreviates: dose: 50.0 mg/kg/injection, schedule: Q01DX009 (ip), vehicle: saline.
Setting [15] is: dose: 100.0 mg/kg/injection, schedule: Q04DX003 (ip), vehicle: saline with Tween-80.
Setting [16] is: dose: 200.0 mg/kg/injection, schedule: Q04DX003 (ip), vehicle: saline with Tween-80.
Setting [17] is: dose: 400.0 mg/kg/injection, schedule: Q04DX003 (ip), vehicle: saline with Tween-80.

Take `CCCCOCN1C(=O)NC(c2ccccc2)(c2ccccc2)C1=O`: under setting [1], the survivor count is on record as 2 of 3.
Still for that read-out and setting: to `CCCCCCCCCCCCC1CCCC(C)C1` (stereo not given) belongs 6 of 6.
Turning to `c1ccc2c(c1)CCc1ccccc1CNC2`, the survivor count is, setting by setting: under setting [2], 0 of 6; under setting [3], 0 of 3; under setting [4], 0 of 6; under setting [5], 0 of 6.
Take `O=[N+]([O-])CC(O)c1ccccc1Cl` (stereo not given): the survivor count under setting [1] was 0 of 6.
For `CCN(CC)C(=O)C1(C)CCCC2(C)c3cc(OC(C)=O)ccc3CCC12` (stereo not given), the survivor count under setting [5] was 5 of 5.
With `Nc1nc(Br)c(Br)nc1C(=O)O`, the T/C (dose: 50.0 mg/kg/injection, schedule: Q01DX009 (ip), vehicle: Klucel (hydroxypropylcellulose) (HPC)) is 127 % of control. In addition, the survivor count is, setting by setting: under setting [2], 3 of 6 and 3 of 3; under setting [4], 0 of 3; under setting [6], 5 of 6; under setting [7], 6 of 6; (dose: 400.0 mg/kg/injection, schedule: Q01DX001 (ip), vehicle: Klucel (hydroxypropylcellulose) (HPC)) 0 of 6; under setting [8], 0 of 6. Further, the survivor count under setting [9] is 0 of 6.
For the molecule `CSc1ccc(OC(=O)Nc2cc([N+](=O)[O-])ccc2F)cc1C`, the T/C under setting [10] was 126 % of control.
Consider `CCCCNC(=O)c1cc(NC(=O)c2ccc(C(=O)Nc3cc(C(=O)NCCCC)cc(C4N=CCN4)c3)cc2)cc(C2=NCCN2)c1` (stereo not given), for which the survivor count is, setting by setting: (dose: 10.0 mg/kg/injection, schedule: Q01DX015 (ip), vehicle: methylcellulose (MC)) 6 of 6; (dose: 125.0 mg/kg/injection, schedule: Q01DX015 (ip), vehicle: methylcellulose (MC)) 4 of 6; (dose: 250.0 mg/kg/injection, schedule: Q01DX015 (ip), vehicle: methylcellulose (MC)) 0 of 6; (dose: 500.0 mg/kg/injection, schedule: Q01DX015 (ip), vehicle: methylcellulose (MC)) 0 of 6.
As to `C[CH2][Pb]([CH2]C)([CH2]C)[O]C(=O)c1ccc(N)cc1`, the survivor count reads like this: (dose: 50.0 mg/kg/injection, schedule: Q04DX002 (ip), vehicle: Klucel (hydroxypropylcellulose) (HPC)) 1 of 3; under setting [3], 0 of 3; under setting [6], 0 of 3; under setting [8], 0 of 3.
As to `CCN=C(N)SCC`, under setting [10], the survivor count was 0 of 3.
As to `CN1CN(c2ccccc2)C2(CCN(CCCCCCC#N)CC2)C1=O`, the survivor count under setting [11] is 2 of 6 and 6 of 6.
Take `O=C(CBr)Nc1ccc(C(=O)O)c(O)c1`: the survivor count under setting [11] is given as 0 of 3, the survivor count under setting [7] is given as 0 of 3 and the survivor count under setting [9] is listed as 0 of 3.
Take `CC(=O)Nc1cccc(N=Cc2ccc(N(CCOS(C)(=O)=O)CCOS(C)(=O)=O)cc2C)c1`: the T/C is, setting by setting: (dose: 12.0 mg/kg/injection, schedule: Q01DX009 (ip), vehicle: saline with Tween-80) 140 % of control; (dose: 18.0 mg/kg/injection, schedule: Q01DX009 (ip), vehicle: saline with Tween-80) 136 % of control. Also, the survivor count is, setting by setting: (dose: 100.0 mg/kg/injection, schedule: Q01DX009 (ip), vehicle: saline with Tween-80) 1 of 6; under setting [1], 0 of 6; (dose: 400.0 mg/kg/injection, schedule: Q01DX009 (ip), vehicle: saline with Tween-80) 0 of 6.
`O=C1CCCN1.O=C1CCCN1.[Br][Co][Br]`: the T/C (dose: 150.0 mg/kg/injection, schedule: Q01DX009 (ip), vehicle: saline) is 128 % of control. Further, the survivor count is listed as 3 of 6 under setting [12]; 0 of 6 (dose: 300.0 mg/kg/injection, schedule: Q01DX009 (ip), vehicle: saline); 0 of 6 under setting [13].
On to `CN(C)C(c1ccccc1)C(CBr)C(=O)c1ccc(Br)cc1` (stereo not given), for which the survivor count by setting is: under setting [14], 0 of 6; under setting [15], 5 of 6; under setting [16], 0 of 6; under setting [17], 0 of 6.
Take `CCOC(=O)CC(=O)Cc1cccc([N+](=O)[O-])c1`: the survivor count under setting [5] is listed as 5 of 6.
Turning to `O=C(O)CNC(=O)CCl`, the survivor count reads like this: under setting [4], 0 of 6; under setting [9], 1 of 6.
Consider `CCN(CC)CC(=O)NCC(CCN1CCOCC1)(CC(C)C)c1cccc2ccccc12` (stereo not given), for which the survivor count by setting is: (dose: 200.0 mg/kg/injection, schedule: Q01DX009 (ip), vehicle: saline) 6 of 6; under setting [13], 0 of 6.
On to `O=C(NCCCCNC(=O)Nc1ccc(C2=NCCN2)cc1)Nc1ccc(C2=NCCN2)cc1`, for which the T/C (dose: 62.0 mg/kg/injection, schedule: Q01DX Z (ip), vehicle: carboxymethylcellulose (CMC)) is 129 % of control. Also, the survivor count was 4 of 6 (dose: 250.0 mg/kg/injection, schedule: Q01DX Z (ip), vehicle: carboxymethylcellulose (CMC)) and 1 of 6 (dose: 500.0 mg/kg/injection, schedule: Q01DX Z (ip), vehicle: carboxymethylcellulose (CMC)).
`Cc1nc(Cl)c2cnccn12`: the survivor count reads like this: under setting [12], 0 of 6; under setting [13], 0 of 6.
In the case of `CN(C)CCCNCC(Cc1ccccc1)c1ccccc1` (stereo not given), the survivor count by setting is: (dose: 200.0 mg/kg/injection, schedule: Q04DX002 (ip), vehicle: saline) 1 of 3; under setting [10], 0 of 3.
For the molecule `CSc1nc([N+](C)(C)C)cc([N+](C)(C)C)n1`, the survivor count (dose: 12.0 mg/kg/injection, schedule: Q01DX Z (ip), vehicle: saline) is recorded as 3 of 6; the survivor count (dose: 25.0 mg/kg/injection, schedule: Q01DX Z (ip), vehicle: saline) is recorded as 0 of 6; the survivor count (dose: 50.0 mg/kg/injection, schedule: Q01DX Z (ip), vehicle: saline) is 0 of 6.
On to `CNC(C)c1ccc(C)cc1` (stereo not given), for which the survivor count by setting is: under setting [15], 3 of 6; under setting [16], 0 of 6; under setting [17], 0 of 6.
`CCCCN1C(=O)c2c(Cl)c(Cl)c(Cl)c(Cl)c2C1=O`: where the note is “dose: 100.0 mg/kg/injection, schedule: Q04DX002 (ip), vehicle: other”, the survivor count is 3 of 3.
For `CCCCCCCCCOC(=O)NC1c2ccccc2Oc2ccccc21`, the survivor count by setting is: (dose: 200.0 mg/kg/injection, schedule: Q01DX009 (ip), vehicle: acetone) 6 of 6; (dose: 400.0 mg/kg/injection, schedule: Q01DX009 (ip), vehicle: acetone) 6 of 6.
For the molecule `CCCCCCCCC(CO)(CCCCCCC)C(=O)O` (stereo not given), the survivor count (dose: 400.0 mg/kg/injection, schedule: Q04DX002 (ip), vehicle: saline with Tween-80) was 0 of 3.
`CC1CC(NC(=S)N(C)C)CC(C)(C)C1` (stereo not given): the survivor count under setting [5] is reported as 0 of 6.
As to `CN1CCC(CN2c3ccccc3Sc3ccccc32)C1` (stereo not given), the survivor count under setting [14] is 4 of 6.
Turning to `CCOC(=O)c1cnc(NN)[nH]c1=O`, the survivor count under setting [9] is listed as 6 of 6.
Turning to `CNC(=O)c1ccc[n+](Cc2ccccc2)c1`, the survivor count (dose: 300.0 mg/kg/injection, schedule: Q01DX001 (ip), vehicle: saline) is given as 1 of 6.
In the case of `COC(=O)C(Br)c1ccc([N+](=O)[O-])cc1` (stereo not given), the survivor count reads like this: (dose: 50.0 mg/kg/injection, schedule: Q01DX009 (ip), vehicle: saline with Tween-80) 2 of 6; (dose: 100.0 mg/kg/injection, schedule: Q04DX003 (ip), vehicle: saline) 5 of 6; under setting [12], 0 of 6; under setting [13], 0 of 6.
For `CNCCc1ccc2cc(OC)c(OC)cc2c1`, the survivor count under setting [16] was 2 of 6 and the survivor count under setting [17] was 0 of 6.
